Consider two substances from doi:10.1101/2022.02.18.480778.

No constants are given. Whether binding was seen depends on the method and setting. Binding seen in cells or lysates may run through a third protein. Some binding calls cover weakened binding; strength is not graded here. For some assays here: Sequences can lack the tags named with a protein.

In assay [1] the target is Shiftless (SHFL, C19ORF66), endogenous in iSLK.WT cells (human (endogenous in iSLK.WT)) (UniProt Q9NUL5). Briefly: co-IP.
Assay [2] deals with T1, 6X HIS-tagged ORF57 (ORF57-6XHIS) (KSHV (HHV-8)) (UniProt Q2HR75).
T1 sequence: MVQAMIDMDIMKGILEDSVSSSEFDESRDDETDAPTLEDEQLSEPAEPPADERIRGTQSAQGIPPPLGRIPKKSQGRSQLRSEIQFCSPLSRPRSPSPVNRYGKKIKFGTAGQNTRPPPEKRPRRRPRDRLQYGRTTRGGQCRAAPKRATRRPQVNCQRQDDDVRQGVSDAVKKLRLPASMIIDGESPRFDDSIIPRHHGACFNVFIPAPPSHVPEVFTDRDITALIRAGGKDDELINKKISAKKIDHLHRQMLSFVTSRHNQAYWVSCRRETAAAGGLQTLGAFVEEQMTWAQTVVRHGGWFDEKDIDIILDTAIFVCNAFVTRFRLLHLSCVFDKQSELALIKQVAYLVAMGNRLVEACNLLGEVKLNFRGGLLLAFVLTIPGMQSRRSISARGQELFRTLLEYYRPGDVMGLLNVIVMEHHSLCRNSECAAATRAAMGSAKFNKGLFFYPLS
Briefly: co-IP.

On to “cytoplasmic poly(A) binding protein 1 (PABPC1) (from UniProt P11940 1-636)”, for which, in assay [1], the binding entry was “binds”. For the substance “FLAG-tagged SHFL (FLAG-SHFL) (from UniProt Q9NUL5 1-291)”, in assay [2], the binding entry was “binds”.
